# Laboratory results: PubChem BioAssay AID504764 (Drosophila RNAi Screening Center, 2011)
# Screen: 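Genes whose knock-down alters Notch-dependent transcription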 (primary screen)
# Cell system: Drosophila Kc167 cells
# Reagent: long dsRNA against Drosophila genes
# Time to read-out: about 5 days (4 days dsRNA, then 24 h after transfection)
# Treatment: transfection of constitutively active membrane-tethered Notch lacking the extracellular domain, read 24 h later
# Read-out: 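Firefly luciferase from an E(spl)m3 reporter with active Notch, plus control-promoter and uninduced reporter wells for normalisation; unnormalised counts, duplicate wells a and b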
# Reading the numbers: induced reporter light, run 1, well a and induced reporter light, run 1, well b: higher = more light from the Notch target reporter with active Notch; control promoter light, run 1, well a and control promoter light, run 1, well b: higher = more light from the viral control promoter (cell number, transfection, viability); uninduced reporter light, run 1, well a: higher = more light from the Notch target reporter without active Notch
# Call rule: 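Wells with low control signal or poorly matching duplicates excluded; duplicates averaged; per source plate, z beyond ±2 for induced/control log2 ratio or beyond ±1.8 for induced/uninduced marks a hit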
# Calls: active = modifier hit (raised or lowered Notch signal); inactive = not a hit
# The deposit covers about 22,000 reagents; shown is an unselected part of those that have a named target and a result. Over the whole deposit, 403 (1.9%) were called active. 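Unnormalised raw counts per well; ratio z-scores behind the hit calls and whether each hit raises or lowers signal are not deposited.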 The numbers tell different reagents against one gene apart. A plus sign joins genes that one reagent is predicted to hit. Not stated in the record: the amount of reagent.
Gene,reagent,"induced reporter light, run 1, well a","induced reporter light, run 1, well b","control promoter light, run 1, well a","control promoter light, run 1, well b","uninduced reporter light, run 1, well a",outcome
Ire1,1,2.00e5,1.92e5,2.21e5,2.00e5,11840,inactive
CG10486,1,2.77e5,2.25e5,4.02e5,3.44e5,12990,inactive
CG14629,1,1.04e5,1.15e5,1.96e5,2.18e5,6820,inactive
Ote,1,66200,74180,2.18e5,2.03e5,4250,active
Dmtn,1,1.23e5,97620,1.01e5,1.05e5,8855,inactive
Hsc70-4,1,34130,27115,26370,34645,2900,inactive
rin,1,56770,40390,37115,39035,7650,inactive
CG5664,1,1.61e5,1.31e5,2.22e5,2.22e5,12680,inactive
SNRPG,1,54490,58330,58210,59395,6505,inactive
CG12491 + CG34105,1,1.41e5,1.75e5,2.67e5,2.44e5,10240,inactive
CG12491 + CG34105,2,1.50e5,1.30e5,1.60e5,1.27e5,10400,inactive
CG7943,1,1.54e5,1.61e5,2.14e5,2.29e5,11725,inactive
CG30395,1,59615,81190,54300,55315,7135,inactive
Or85e (retired record),1,81840,1.16e5,99710,1.02e5,5360,inactive
CG3253,1,1.04e5,93535,66600,67860,7465,inactive

Already shown: an excerpt of the list.
Gene,reagent,"induced reporter light, run 1, well a","induced reporter light, run 1, well b","control promoter light, run 1, well a","control promoter light, run 1, well b","uninduced reporter light, run 1, well a",outcome
Ire1,1,2.00e5,1.92e5,2.21e5,2.00e5,11840,inactive
CG10486,1,2.77e5,2.25e5,4.02e5,3.44e5,12990,inactive
CG14629,1,1.04e5,1.15e5,1.96e5,2.18e5,6820,inactive
Ote,1,66200,74180,2.18e5,2.03e5,4250,active
Dmtn,1,1.23e5,97620,1.01e5,1.05e5,8855,inactive

The results go on:
Gene,reagent,"induced reporter light, run 1, well a","induced reporter light, run 1, well b","control promoter light, run 1, well a","control promoter light, run 1, well b","uninduced reporter light, run 1, well a",outcome
DIP-alpha,1,1.86e5,1.76e5,2.68e5,2.41e5,12810,inactive
DIP-alpha,2,36490,30125,11445,15195,9230,inactive
CG33919,1,97555,1.03e5,1.10e5,1.03e5,4135,inactive
Mid1,1,2.03e5,1.66e5,1.36e5,1.30e5,12310,inactive
Mid1,2,1.96e5,1.79e5,1.58e5,1.51e5,12925,inactive
Mid1,3,1.54e5,1.04e5,1.14e5,1.11e5,11580,inactive
Mid1,4,,,,,,active
Lrrk,1,1.61e5,1.44e5,1.93e5,1.97e5,11345,inactive
CG15382,1,1.18e5,1.10e5,90470,58350,9385,inactive
CG15142,1,1.26e5,1.40e5,1.29e5,1.29e5,11485,inactive
CG31086 + CG31323,1,1.78e5,2.01e5,2.18e5,2.12e5,14205,inactive
Arp5,1,1.84e5,1.69e5,2.24e5,2.31e5,15115,inactive
CG9945,1,1.93e5,1.55e5,1.83e5,1.68e5,13355,inactive
CG12107,1,2.63e5,2.07e5,2.17e5,2.51e5,16095,inactive
cas,1,1.08e5,1.32e5,1.17e5,1.07e5,8585,inactive
CG42306 + Gint3,1,60720,76245,1.01e5,98835,4510,inactive
Tehao,1,1.36e5,1.35e5,1.51e5,1.77e5,11130,inactive
CG13085,1,82415,55215,61590,65460,2515,inactive
ham,1,65625,61225,59270,47900,4115,inactive
ham,2,35295,46295,58580,28995,2395,inactive
ham,3,42190,46170,51980,38750,3285,inactive
